Measurements reported in PubChem BioAssay AID493246 (Drosophila RNAi Screening Center, 2011).

- Purpose: 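Identify essential fly genes by loss of cell viability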 (primary screen)
- Cells: Drosophila Kc and S2R+ cells
- Knock-down reagent: long dsRNA against Drosophila genes
- Measured: 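Cell number per well after knock-down, printed as raw plate values; calls were based on per-plate z-scores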
- Scale: Kc cell number and S2R+ cell number: higher = more cells remaining
- Active means: 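Counted as a hit if cell number falls by a z-score of at least 3 within its plate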
The deposit covers about 21,000 reagents; this is a random part of those with a known target gene and a result. In the full data, 429 (2%) got an active call. 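Values are raw and not normalised between plates; calls rest on per-plate z-scores that were not deposited.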 The numbers tell different reagents against one gene apart. Not stated in the record: the amount of reagent, the time to read-out.

For c12.2, the entry reads Kc cell number, rep 1 = 1.76e6; Kc cell number, rep 2 = 1.58e6; S2R+ cell number, rep 1 = 1.01e6; S2R+ cell number, rep 2 = 1.06e6; inactive.
Against CR30068 (retired record), the entry reads Kc cell number, rep 1 = 1.57e6; Kc cell number, rep 2 = 1.59e6; S2R+ cell number, rep 1 = 1.07e6; S2R+ cell number, rep 2 = 1.19e6; inactive.
alpha4GT1 (alpha1,4-galactosyltransferase 1) gave Kc cell number, rep 1 = 1.38e6; Kc cell number, rep 2 = 1.36e6; S2R+ cell number, rep 1 = 8.14e5; S2R+ cell number, rep 2 = 9.54e5; inactive.
CG4653 gave Kc cell number, rep 1 = 1.78e6; Kc cell number, rep 2 = 1.68e6; S2R+ cell number, rep 1 = 1.13e6; S2R+ cell number, rep 2 = 1.20e6; inactive.

Reprinted from above for reference:
c12.2 — Kc cell number, rep 1: 1.76e6; Kc cell number, rep 2: 1.58e6; S2R+ cell number, rep 1: 1.01e6; S2R+ cell number, rep 2: 1.06e6; outcome: inactive
CR30068 (retired record) — Kc cell number, rep 1: 1.57e6; Kc cell number, rep 2: 1.59e6; S2R+ cell number, rep 1: 1.07e6; S2R+ cell number, rep 2: 1.19e6; outcome: inactive

The results go on:
For Atg101 (Autophagy-related 101) the deposit lists Kc cell number, rep 1 = 1.51e6; Kc cell number, rep 2 = 1.41e6; S2R+ cell number, rep 1 = 1.03e6; S2R+ cell number, rep 2 = 1.11e6; inactive.
For CG14196, the values are Kc cell number, rep 1 = 1.46e6; Kc cell number, rep 2 = 1.50e6; S2R+ cell number, rep 1 = 1.05e6; S2R+ cell number, rep 2 = 1.11e6; inactive.
With knock-down of CG42594 #1 the results were Kc cell number, rep 1 = 3.81e5; Kc cell number, rep 2 = 4.83e5; S2R+ cell number, rep 1 = 4.46e5; S2R+ cell number, rep 2 = 5.72e5; active.
For CG42594 #2, the values are Kc cell number, rep 1 = 1.58e6; Kc cell number, rep 2 = 1.54e6; S2R+ cell number, rep 1 = 1.09e6; S2R+ cell number, rep 2 = 1.22e6; inactive.
For NimB4 (Nimrod B4) the deposit lists Kc cell number, rep 1 = 1.37e6; Kc cell number, rep 2 = 1.48e6; S2R+ cell number, rep 1 = 1.27e6; S2R+ cell number, rep 2 = 1.12e6; inactive.
For Nca (Neurocalcin), the values are Kc cell number, rep 1 = 1.39e6; Kc cell number, rep 2 = 1.80e6; S2R+ cell number, rep 1 = 1.33e6; S2R+ cell number, rep 2 = 1.32e6; inactive.
After knock-down of CG13545, the record shows Kc cell number, rep 1 = 1.62e6; Kc cell number, rep 2 = 1.74e6; S2R+ cell number, rep 1 = 1.40e6; S2R+ cell number, rep 2 = 1.53e6; inactive.
Knock-down of CG33494 gave: Kc cell number, rep 1 = 1.18e6; Kc cell number, rep 2 = 1.50e6; S2R+ cell number, rep 1 = 1.06e6; S2R+ cell number, rep 2 = 1.08e6; inactive.
Against tty (tweety), the entry reads Kc cell number, rep 1 = 1.64e6; Kc cell number, rep 2 = 1.63e6; S2R+ cell number, rep 1 = 1.04e6; S2R+ cell number, rep 2 = 1.19e6; inactive.
With knock-down of CG12017 the results were Kc cell number, rep 1 = 1.61e6; Kc cell number, rep 2 = 1.36e6; S2R+ cell number, rep 1 = 9.81e5; S2R+ cell number, rep 2 = 1.42e6; inactive.
